Measured values: PubChem BioAssay AID1347140 (National Center for Advancing Translational Sciences (NCATS), 2019)
The shares of active, inactive and inconclusive entries below differ from those in the screen. A potency beside an inconclusive call is a rough fit, not a confirmed value. The source made the active and inactive calls. Calls come from the whole dose curve; as a rule, active = well fitted inhibition curve with a large enough effect; inconclusive = small, poorly fitted or top-dose-only effect; inactive = no such curve, though single readings can be large or run the other way.

Assay: qHTS of pediatric cancer cell lines to identify multiple opportunities for drug repurposing: Orthogonal 3D viability screen for MG 63 (6-TG R) cells
Conditions: MG-63 (6-TG R) 3D spheroid viability, PI/Hoechst imaging, 72 h; series mostly up to 30.7 µM
Source text: Drug repurposing or repositioning has been offered as a strategy for drug development in oncology programs. This approach has special potential for childhood cancers and other rare or orphan diseases, where the expected return on new drug development has been a disincentive to pharmaceuticals. […] In this project we exploit the poly-pharmacology of drugs to discover new indications via phenotypic screening of a panel of 19 well-characterized cell lines derived from solid tumors seen in children and adolescents. The goal is to identify approved drugs with previously unrecognized anticancer properties that has the potential to reveal new mechanisms and biological processes involved in carcinogenesis or drug resistance. We employed a titration-based paradigm (quantitative high-throughput screening or qHTS), where all compounds were tested at multiple concentrations for their effect on cell viability. Concentration-response curves (CRCs) were derived directly from the primary screen, and both potency and efficacy values were used to identify compounds with robust bioactivity profiles. […] These two assays will be used to validate active compounds and assess the correlation of compound's potency in 2D vs 3D cultures on selected cell lines. Assay Submitter: Nathalia J. Martinez, National Center for Advancing Translational Sciences, National Institutes of Health, Rockville, MD, USA; email: natalia.martinez@nih.gov Shen, M et al. Quantitative high-throughput phenotypic screening of pediatric cancer cell lines identifies multiple opportunities for drug repurposing. Oncotarget 2017 Dec 19;9(4):4758-4772. PMID 29435139.
The cells were obtained from University of North Carolina (UNC), Pediatric Preclinical Testing Program (PPT), and Coriell Institute (CI). qHTS viability in 3D culture: Cells were assayed in phenol red-free growth media at a density of 1,000 cells/well, with the exception of Daoy, and SH-N-SH which were assayed at 1,500 cells/ well. Thirty muL of cells were dispensed into 384-well, ULA, round bottom plates (Corning) using a Multidrop dispenser. Plates were spun down at 1,000 rpm for 1 min and incubated at 37 degrees C, 5% CO2, under a humidified atmosphere for either 24 (Daoy) or 48 hours (all other cell lines) to allow spheroid formation. Ninety-two nanoliter of compounds and controls (neutral control DMSO or positive control bortezomib at final concentrations of 0.5 µM) were subsequently transferred via GNF Pintool. Plates were sealed using a breathable seal (Diversified Biotech, Dedham, MA) and incubated for 72 hours at 37 degrees C. Spheroid viability was first determined by high-content imaging using Hoechst 33342 and Propidium Iodide (PI, ThermoFisher Scientific), followed by addition of CellTiter-Glo 3D (Promega). Specifically, 3 µL/well of PBS containing a 1:500 dilution of both dyes was dispensed using Multidrop. Dyes were incubated for 1 hour before imaging using the Celigo Image Cytometer. Then, 20 µl of CellTiter-Glo 3D were added per well. Plates were incubated for 30 min at RT on a VWR microplate shaker (300 rpm) and analyzed for luminescence intensity using a ViewLux High-throughput CCD imager equipped with clear filters. Image analysis was done using the Celigo Tumorsphere 1+2+3 application software as previously described. Briefly, spheroids were first identified using bright-field image segmentation, and then the fluorescent intensities of PI and Hoechst 3342 were obtained using red (EX: 531/40 nm, EM: 629/53 nm) and blue (EX: 377/50 nm, EM: 470/22 nm) filters, respectively. The data were exported to Excel, and the average fluorescent intensities were used to calculate the ratio of PI over Hoechst, which was used to quantify viability. Percent activity based on neutral and positive control bortezomib was derived.
For `COc1cccc2c1C(=O)c1c(O)c3c(c(O)c1C2=O)C[C@@](O)(C(=O)CO)C[C@@H]3O[C@H]1C[C@H](N)[C@H](O)[C@H](C)O1`, the Potency was active: 4060 nM. With `Nc1nc(Cl)nc2c1ncn2[C@@H]1O[C@H](CO)[C@@H](O)[C@@H]1F` the Potency was active: 162 nM. For `COc1ccc(S(=O)(=O)Nc2cccnc2Nc2ccc(O)cc2)cc1`, the Potency was inconclusive: 2280 nM [inhibitor, full curve]. For `C=C1C(=CC=C2CCC[C@]3(C)[C@@H]([C@H](C)C=C[C@H](C)C(C)C)CC[C@@H]23)C[C@@H](O)C[C@@H]1O`, the Potency was inconclusive: 323 nM [inhibitor, full curve, poor fit]. For `COc1cc([C@@H]2c3cc4c(cc3[C@@H](O[C@@H]3O[C@@H]5CO[C@@H](C)O[C@@H]5[C@H](O)[C@@H]3O)[C@H]3COC(=O)[C@H]23)OCO4)cc(OC)c1O`, the Potency was inconclusive: 288 nM [inhibitor, full curve]. In the case of `CC(C)Cc1ccc(C(C)C(=O)O)cc1` (stereo not drawn), the Potency is reported as “inactive”. In the case of `C[C@]1(c2nc3c(C(N)=O)cccc3[nH]2)CCCN1`, the Potency is reported as inconclusive: 12800 nM [inhibitor, partial curve, poor fit]. With `COc1cc([C@@H]2c3cc4c(cc3[C@H](O)[C@H]3COC(=O)[C@H]23)OCO4)cc(OC)c1OC` the Potency was inconclusive: 25600 nM [inhibitor, single point]. For `Cc1ccc(-c2ncn(-c3ccc(Nc4nccc(-c5cccc(N6CCOCC6)c5)n4)cc3)n2)cn1`, the Potency was “inactive”. With `Nc1nc2c(ncn2COCCO)c(=O)[nH]1` the Potency was inconclusive: 144 nM [inhibitor, full curve, poor fit]. In the case of `C[C@H]1[C@@H](OC(=O)CCC(=O)O)O[C@@H]2O[C@@]3(C)CC[C@@H]4[C@H](C)CC[C@@H]1[C@@]24OO3`, the Potency is reported as inconclusive: 10200 nM [inhibitor, partial curve]. In the case of `CC(=O)O[C@H]1C(=O)[C@@]2(C)[C@H]([C@H](OC(=O)c3ccccc3)[C@]3(O)C[C@H](OC(=O)[C@H](O)[C@@H](NC(=O)c4ccccc4)c4ccccc4)C(C)=C1C3(C)C)[C@]1(OC(C)=O)CO[C@@H]1C[C@@H]2O`, the Potency is reported as inconclusive: 11.4 nM [inhibitor, full curve, poor fit]. With `C[C@]12C=CC(=O)C=C1CC[C@H]1[C@@H]3C[C@@H](O)[C@](O)(C(=O)CO)[C@@]3(C)C[C@H](O)[C@@]12F` the Potency was “inactive”. For `COC(=O)Nc1nc2ccc(S(=O)c3ccccc3)cc2[nH]1` (stereo not drawn), the Potency was inconclusive: 1440 nM [inhibitor, full curve]. For `CC(C)(C)C(=O)OCOP(=O)(COCCn1cnc2c(N)ncnc21)OCOC(=O)C(C)(C)C`, the Potency was inconclusive: 9090 nM [inhibitor, partial curve, poor fit]. With `COC(=O)Nc1nc2ccc(C(=O)c3ccc(F)cc3)cc2[nH]1` the Potency was inconclusive: 4060 nM [inhibitor, full curve, poor fit]. In the case of `COc1ccc(-c2nc(N3CCOCC3)c3sc(CN(C)c4ncc(C(=O)NO)cn4)cc3n2)cn1`, the Potency is reported as inconclusive: 362 nM [inhibitor, full curve]. In the case of `COc1c(C)c2c(c(O)c1C/C=C(\C)CCC(=O)OCCN1CCOCC1)C(=O)OC2`, the Potency is reported as active: 810 nM. With `CC(=O)O[C@@]12CO[C@H]1C[C@H](O)[C@@]1(C)C(=O)[C@H](O)C3=C(C)[C@@H](OC(=O)C(O)[C@@H](NC(=O)OC(C)(C)C)c4ccccc4)C[C@@](O)([C@@H](OC(=O)c4ccccc4)[C@@H]21)C3(C)C` (stereo partly drawn) the Potency was active: 8100 nM. With `COc1cc(C(C)=O)ccc1OCCCN1CCC(c2noc3cc(F)ccc23)CC1` the Potency was active: 12800 nM. In the case of `COC1=C2C[C@@H](C)C[C@H](OC)[C@@H](O)[C@@H](C)C=C(C)[C@H](OC(N)=O)[C@@H](OC)C=CC=C(C)C(=O)NC(=CC1=O)C2=O`, the Potency is reported as “inactive”. For `CCc1nc(N)nc(N)c1-c1ccc(Cl)cc1`, the Potency was inconclusive: 2880 nM [inhibitor, full curve]. In the case of `Cn1cc(CNCC2CCN(c3ncc(C(=O)NO)cn3)CC2)c2ccccc21`, the Potency is reported as active: 722 nM. With `COc1cc([C@@H]2c3cc4c(cc3C(O[C@@H]3O[C@@H]5CO[C@@H](c6cccs6)OC5[C@H](O)[C@H]3O)C3COC(=O)[C@@H]32)OCO4)cc(OC)c1O` (stereo partly drawn) the Potency was active: 4060 nM. In the case of `CCOc1cc(N2CCC(O)CC2)ccc1Nc1ncc2c(n1)N(C)c1ccccc1C(=O)N2C`, the Potency is reported as “inactive”. In the case of `CC(=O)OCC(=O)[C@@]12N=C(C)O[C@@H]1C[C@H]1[C@@H]3CCC4=CC(=O)C=C[C@]4(C)[C@H]3[C@@H](O)C[C@@]12C`, the Potency is reported as “inactive”. With `C[C@@H]1C[C@H]2[C@@H]3CCC4=CC(=O)C=C[C@]4(C)[C@@]3(Cl)[C@@H](O)C[C@]2(C)[C@@]1(OC(=O)c1ccco1)C(=O)CCl` the Potency was “inactive”. With `COc1cccc2c1C(=O)c1c(O)c3c(c(O)c1C2=O)C[C@@](O)(C(=O)CO)C[C@@H]3O[C@H]1C[C@H](N)[C@H](OC2CCCCO2)[C@H](C)O1` (stereo partly drawn) the Potency was inconclusive: 2040 nM [inhibitor, full curve, poor fit].
